Assay results reported in patent US20240299558A1, “PROTEOLYSIS TARGETING CHIMERAS AND POLYPHARMACOLOGICAL AGENTS TARGETING BCL-2, AND METHODS OF USE THEREOF” (University of Maryland, Baltimore, priority 2021, published 2024).
At least one structure is not confirmed: it was looked up by name or label, or the drawing left a doubt.

Key:
[1] = VEN monotherapy, Phase 2 AML clinical trial; cited from earlier work
MOLM14 AML cells = assay: Luc-labelled MOLM14 AML xenograft pilot experiment in NRG mice; settings: two 5d PO treatment cycles, to d84, 5 mice/group

CC1(C)CCC(CN2CCN(c3ccc(C(=O)NS(=O)(=O)c4ccc(NCC5CCOCC5)c([N+](=O)[O-])c4)c(Oc4cnc5[nH]ccc5c4)c3)CC2)=C(c2ccc(Cl)cc2)C1 [venetoclax]
median time to progression [1]: 2.5 month
response rate [1]: 19%
survival (Kaplan-Meier) vs vehicle or monotherapy (MOLM14 AML cells): no detectable effect
